In the supplement of paper PMC10849652:
The list shows a part of the results.

Sequences of proteins named here, by UniProt entry; tags and fusion partners are left off. A change or cut given only in a name is not applied to a line headed by its entry.
UniProt O95989: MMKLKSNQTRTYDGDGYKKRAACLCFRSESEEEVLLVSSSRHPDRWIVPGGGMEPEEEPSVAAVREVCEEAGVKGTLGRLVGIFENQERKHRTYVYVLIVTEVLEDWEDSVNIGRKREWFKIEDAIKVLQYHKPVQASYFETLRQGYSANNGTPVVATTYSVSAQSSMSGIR
UniProt O15294: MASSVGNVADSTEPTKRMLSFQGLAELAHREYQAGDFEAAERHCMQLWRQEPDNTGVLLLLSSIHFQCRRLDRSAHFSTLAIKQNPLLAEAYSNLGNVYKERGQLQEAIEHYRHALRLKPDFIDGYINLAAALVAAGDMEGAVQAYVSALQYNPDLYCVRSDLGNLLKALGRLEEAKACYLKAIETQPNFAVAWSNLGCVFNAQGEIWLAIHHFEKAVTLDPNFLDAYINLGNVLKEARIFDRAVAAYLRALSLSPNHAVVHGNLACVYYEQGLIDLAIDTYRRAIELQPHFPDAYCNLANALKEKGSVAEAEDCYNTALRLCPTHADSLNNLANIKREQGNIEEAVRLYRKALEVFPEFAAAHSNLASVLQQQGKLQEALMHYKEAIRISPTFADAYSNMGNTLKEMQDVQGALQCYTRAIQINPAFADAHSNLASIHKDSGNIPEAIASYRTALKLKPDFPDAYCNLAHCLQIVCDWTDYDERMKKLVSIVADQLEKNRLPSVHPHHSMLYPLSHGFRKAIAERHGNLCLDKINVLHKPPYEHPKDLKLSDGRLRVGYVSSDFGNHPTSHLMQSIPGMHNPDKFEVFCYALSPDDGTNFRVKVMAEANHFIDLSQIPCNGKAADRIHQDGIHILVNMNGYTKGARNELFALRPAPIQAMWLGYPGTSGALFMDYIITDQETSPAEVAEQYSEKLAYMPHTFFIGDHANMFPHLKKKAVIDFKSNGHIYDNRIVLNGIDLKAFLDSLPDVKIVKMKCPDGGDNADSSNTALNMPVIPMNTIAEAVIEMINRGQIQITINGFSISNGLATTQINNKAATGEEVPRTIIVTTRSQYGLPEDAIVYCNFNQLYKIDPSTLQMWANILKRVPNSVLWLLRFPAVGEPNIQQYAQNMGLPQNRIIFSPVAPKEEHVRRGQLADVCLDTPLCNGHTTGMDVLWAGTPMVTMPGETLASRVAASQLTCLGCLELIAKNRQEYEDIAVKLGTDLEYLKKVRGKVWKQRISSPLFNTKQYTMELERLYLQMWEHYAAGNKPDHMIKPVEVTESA
UniProt Q9BV86: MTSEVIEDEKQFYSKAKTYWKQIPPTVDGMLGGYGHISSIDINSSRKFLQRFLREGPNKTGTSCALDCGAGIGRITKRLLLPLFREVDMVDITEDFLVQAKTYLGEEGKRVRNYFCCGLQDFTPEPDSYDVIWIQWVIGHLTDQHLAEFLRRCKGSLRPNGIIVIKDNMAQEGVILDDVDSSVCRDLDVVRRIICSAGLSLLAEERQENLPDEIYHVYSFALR
UniProt Q9UBD5: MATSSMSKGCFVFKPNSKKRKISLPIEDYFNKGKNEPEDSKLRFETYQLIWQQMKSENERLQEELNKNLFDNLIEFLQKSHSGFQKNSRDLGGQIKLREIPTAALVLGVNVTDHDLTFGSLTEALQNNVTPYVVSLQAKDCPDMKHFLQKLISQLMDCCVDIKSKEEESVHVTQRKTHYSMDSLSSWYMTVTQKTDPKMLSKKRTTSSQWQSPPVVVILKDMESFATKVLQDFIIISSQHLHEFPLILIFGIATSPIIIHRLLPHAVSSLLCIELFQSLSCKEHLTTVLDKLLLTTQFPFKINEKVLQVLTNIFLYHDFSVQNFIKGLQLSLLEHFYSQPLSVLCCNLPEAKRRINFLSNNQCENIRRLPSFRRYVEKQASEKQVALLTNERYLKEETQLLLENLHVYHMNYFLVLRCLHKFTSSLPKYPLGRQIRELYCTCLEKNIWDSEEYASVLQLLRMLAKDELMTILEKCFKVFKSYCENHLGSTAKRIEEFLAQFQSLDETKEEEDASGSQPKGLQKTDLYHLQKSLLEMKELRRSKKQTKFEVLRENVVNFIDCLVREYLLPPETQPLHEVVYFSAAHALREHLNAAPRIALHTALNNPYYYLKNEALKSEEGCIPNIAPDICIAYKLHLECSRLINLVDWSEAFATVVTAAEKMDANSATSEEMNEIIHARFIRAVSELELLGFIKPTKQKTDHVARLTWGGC
UniProt Q9BXS6: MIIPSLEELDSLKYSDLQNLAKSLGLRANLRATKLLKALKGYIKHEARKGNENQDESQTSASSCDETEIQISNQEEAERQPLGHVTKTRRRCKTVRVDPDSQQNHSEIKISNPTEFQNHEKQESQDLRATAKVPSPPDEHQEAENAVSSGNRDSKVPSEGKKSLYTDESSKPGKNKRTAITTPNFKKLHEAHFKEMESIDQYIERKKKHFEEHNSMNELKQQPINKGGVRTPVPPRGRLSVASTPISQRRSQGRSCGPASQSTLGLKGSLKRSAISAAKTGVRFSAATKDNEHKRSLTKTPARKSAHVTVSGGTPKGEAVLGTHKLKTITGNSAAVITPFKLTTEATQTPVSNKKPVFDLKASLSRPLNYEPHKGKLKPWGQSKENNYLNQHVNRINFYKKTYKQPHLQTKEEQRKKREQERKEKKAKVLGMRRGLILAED
UniProt Q9BW27: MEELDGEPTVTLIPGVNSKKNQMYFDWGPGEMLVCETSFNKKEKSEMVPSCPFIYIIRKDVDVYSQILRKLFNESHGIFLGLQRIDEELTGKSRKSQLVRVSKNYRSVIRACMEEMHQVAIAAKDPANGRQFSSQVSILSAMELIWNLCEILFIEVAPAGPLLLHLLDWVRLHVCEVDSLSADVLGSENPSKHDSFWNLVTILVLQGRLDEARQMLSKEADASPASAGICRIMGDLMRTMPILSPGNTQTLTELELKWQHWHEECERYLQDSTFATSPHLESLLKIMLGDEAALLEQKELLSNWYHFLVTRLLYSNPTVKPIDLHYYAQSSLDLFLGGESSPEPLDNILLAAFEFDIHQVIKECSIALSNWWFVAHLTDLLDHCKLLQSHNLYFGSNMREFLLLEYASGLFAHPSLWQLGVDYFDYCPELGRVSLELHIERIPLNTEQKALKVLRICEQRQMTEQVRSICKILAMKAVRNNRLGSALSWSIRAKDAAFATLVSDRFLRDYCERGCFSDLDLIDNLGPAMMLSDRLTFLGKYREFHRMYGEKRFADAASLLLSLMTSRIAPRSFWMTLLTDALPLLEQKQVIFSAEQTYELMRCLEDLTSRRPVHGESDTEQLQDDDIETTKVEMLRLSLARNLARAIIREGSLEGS
UniProt P37198: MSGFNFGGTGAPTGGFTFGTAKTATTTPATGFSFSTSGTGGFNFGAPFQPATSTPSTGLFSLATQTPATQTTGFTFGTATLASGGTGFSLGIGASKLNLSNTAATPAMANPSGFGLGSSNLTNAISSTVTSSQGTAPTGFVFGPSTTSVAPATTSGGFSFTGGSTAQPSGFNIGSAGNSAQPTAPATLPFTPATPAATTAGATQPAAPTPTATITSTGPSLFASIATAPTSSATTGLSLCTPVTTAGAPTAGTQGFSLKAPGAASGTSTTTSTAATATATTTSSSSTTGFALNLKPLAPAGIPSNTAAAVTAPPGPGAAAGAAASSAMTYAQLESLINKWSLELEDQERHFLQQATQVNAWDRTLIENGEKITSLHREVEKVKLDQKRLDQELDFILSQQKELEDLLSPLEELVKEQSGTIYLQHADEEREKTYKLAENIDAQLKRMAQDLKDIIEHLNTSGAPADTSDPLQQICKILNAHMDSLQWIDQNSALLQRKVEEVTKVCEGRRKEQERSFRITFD
UniProt Q86UY8: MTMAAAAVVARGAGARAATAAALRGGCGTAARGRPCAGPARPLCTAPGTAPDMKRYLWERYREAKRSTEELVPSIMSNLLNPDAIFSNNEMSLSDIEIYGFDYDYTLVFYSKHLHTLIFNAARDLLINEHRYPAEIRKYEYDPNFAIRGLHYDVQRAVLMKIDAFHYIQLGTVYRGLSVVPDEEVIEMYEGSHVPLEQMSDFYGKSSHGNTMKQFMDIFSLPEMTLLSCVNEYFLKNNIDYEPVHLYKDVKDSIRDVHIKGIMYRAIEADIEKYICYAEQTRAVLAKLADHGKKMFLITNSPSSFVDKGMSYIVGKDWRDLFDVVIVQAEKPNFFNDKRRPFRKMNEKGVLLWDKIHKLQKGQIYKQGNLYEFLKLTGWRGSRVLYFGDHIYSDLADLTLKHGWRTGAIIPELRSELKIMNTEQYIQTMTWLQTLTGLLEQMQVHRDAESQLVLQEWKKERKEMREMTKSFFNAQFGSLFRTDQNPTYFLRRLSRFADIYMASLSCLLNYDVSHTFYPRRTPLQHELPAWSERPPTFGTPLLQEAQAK
UniProt Q9BZF1: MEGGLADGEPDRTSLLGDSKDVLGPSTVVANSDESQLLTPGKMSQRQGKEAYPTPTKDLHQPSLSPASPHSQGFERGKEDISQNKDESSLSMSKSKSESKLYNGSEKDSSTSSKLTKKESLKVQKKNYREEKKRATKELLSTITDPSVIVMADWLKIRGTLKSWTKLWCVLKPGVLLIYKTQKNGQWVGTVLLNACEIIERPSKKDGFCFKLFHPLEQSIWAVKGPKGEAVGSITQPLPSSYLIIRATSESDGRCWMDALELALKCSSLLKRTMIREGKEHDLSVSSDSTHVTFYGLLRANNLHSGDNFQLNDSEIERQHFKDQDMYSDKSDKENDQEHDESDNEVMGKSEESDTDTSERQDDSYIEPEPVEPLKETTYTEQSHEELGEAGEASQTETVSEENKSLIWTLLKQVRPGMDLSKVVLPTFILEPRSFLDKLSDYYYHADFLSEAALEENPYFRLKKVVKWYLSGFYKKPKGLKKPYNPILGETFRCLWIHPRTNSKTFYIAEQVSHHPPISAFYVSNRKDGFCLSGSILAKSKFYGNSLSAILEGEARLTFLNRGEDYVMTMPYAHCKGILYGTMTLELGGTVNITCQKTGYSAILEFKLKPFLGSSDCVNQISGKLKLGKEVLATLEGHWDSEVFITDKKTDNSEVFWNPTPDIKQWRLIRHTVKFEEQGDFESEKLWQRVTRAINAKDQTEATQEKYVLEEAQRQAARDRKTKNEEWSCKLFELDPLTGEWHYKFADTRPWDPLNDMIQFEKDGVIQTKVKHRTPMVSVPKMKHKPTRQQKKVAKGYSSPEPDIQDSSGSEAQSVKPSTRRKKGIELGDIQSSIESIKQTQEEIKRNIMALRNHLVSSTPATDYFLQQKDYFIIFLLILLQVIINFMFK
UniProt O95747, whole entry, looked up: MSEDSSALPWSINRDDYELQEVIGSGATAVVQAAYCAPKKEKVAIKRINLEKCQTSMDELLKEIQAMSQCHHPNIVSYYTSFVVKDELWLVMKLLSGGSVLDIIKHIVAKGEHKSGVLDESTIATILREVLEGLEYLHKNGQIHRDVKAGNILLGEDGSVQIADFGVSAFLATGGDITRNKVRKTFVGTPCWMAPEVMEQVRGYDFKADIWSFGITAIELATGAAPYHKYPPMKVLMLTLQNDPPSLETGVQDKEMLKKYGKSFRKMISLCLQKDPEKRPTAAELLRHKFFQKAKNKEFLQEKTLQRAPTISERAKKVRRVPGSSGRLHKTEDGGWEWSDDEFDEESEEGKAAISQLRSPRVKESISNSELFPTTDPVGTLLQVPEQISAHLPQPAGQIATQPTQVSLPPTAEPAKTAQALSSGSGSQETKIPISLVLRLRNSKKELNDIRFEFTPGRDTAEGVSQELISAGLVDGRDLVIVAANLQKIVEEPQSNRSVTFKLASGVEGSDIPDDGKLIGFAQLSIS
UniProt P61970, whole entry, looked up: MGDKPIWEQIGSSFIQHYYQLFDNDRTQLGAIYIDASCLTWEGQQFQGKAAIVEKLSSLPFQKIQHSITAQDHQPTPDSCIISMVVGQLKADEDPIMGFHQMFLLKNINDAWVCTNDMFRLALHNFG
UniProt Q9BRJ7: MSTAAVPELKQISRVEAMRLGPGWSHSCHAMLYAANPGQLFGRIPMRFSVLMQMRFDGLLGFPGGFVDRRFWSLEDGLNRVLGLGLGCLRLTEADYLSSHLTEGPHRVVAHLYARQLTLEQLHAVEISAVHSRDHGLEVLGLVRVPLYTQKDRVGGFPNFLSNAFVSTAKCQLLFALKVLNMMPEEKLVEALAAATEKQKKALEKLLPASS

Experiments:
Assay in all cases: log2 fold change, soluble protein after heating vs DMSO (PISA); higher = thermal stabilisation; K562 cells, 10 uM, 30 min; active = over 0.2 and 3.5 SD of the protein, either way, in both replicates (recomputed)
bafetinib = compound: Cc1ccc(NC(=O)c2ccc(CN3CC[C@H](N(C)C)C3)c(C(F)(F)F)c2)cc1Nc1nccc(-c2cncnc2)n1 [bafetinib]
In short: (§1)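 K562 cells (2×10^6 cells/mL) were treated with 10 μM compound for 30 min, and aliquots were heated for 3 min over 48°C-58°C. Pooled aliquots were extracted in PBS with 0.5% NP-40 at 4°C, and the supernatant after 21,000xg for 90 min was measured by TMTpro 16plex LC-MS/MS with channel sums equalised. Reported thermal stability, relative to control samples and from duplicates, is a log2 fold change.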

[1] = compound: Cc1cccc(CC(=O)N2CCc3c2ccc(-c2cn(C)c4ncnc(N)c24)c3F)n1
In short: as §1

nilotinib = compound: Cc1cn(-c2cc(NC(=O)c3ccc(C)c(Nc4nccc(-c5cccnc5)n4)c3)cc(C(F)(F)F)c2)cn1 [nilotinib]
In short: as §1

[2] = compound: Cc1nc(Nc2n[nH]c3c2CN(C(=O)N[C@H](CN(C)C)c2ccccc2)C3(C)C)c2sccc2n1
In short: as §1

dasatinib = compound: Cc1nc(Nc2ncc(C(=O)Nc3c(C)cccc3Cl)s2)cc(N2CCN(CCO)CC2)n1 [dasatinib]
In short: as §1

[3] = compound: Cc1ncc(-c2ccnc(Nc3ccc(S(C)(=O)=O)cc3)n2)n1C(C)C
In short: as §1

[4] = compound: Cn1cc(-c2ccc3c(c2)CCN3C(=O)Cc2cccc(C(F)(F)F)c2)c2c(N)ncnc21
In short: as §1

[5] = compound: Cn1cc(-c2ccc3nnc(C(F)(F)c4ccc5ncccc5c4)n3n2)cn1
In short: as §1

tipifarnib = compound: Cn1cncc1[C@@](N)(c1ccc(Cl)cc1)c1ccc2c(c1)c(-c1cccc(Cl)c1)cc(=O)n2C [tipifarnib]
In short: as §1

mubritinib = compound: FC(F)(F)c1ccc(/C=C/c2nc(COc3ccc(CCCCn4ccnn4)cc3)co2)cc1 [mubritinib]
In short: as §1

[6] = compound: NC(=O)Nc1cc(-c2cccc(F)c2)sc1C(=O)N[C@H]1CCCNC1
In short: as §1

[7] = compound: NC(=O)c1cnc(N[C@@H]2CCCC[C@@H]2N)nc1Nc1cccc(-n2nccn2)c1
In short: as §1

[8] = compound: NC1(c2ccc(-c3nc4ccn5c(=O)[nH]nc5c4cc3-c3ccccc3)cc2)CCC1
In short: as §1

[9] = compound: NCC(=O)Nc1ccc(-n2nc(C(F)(F)F)cc2-c2ccc3c(ccc4ccccc43)c2)cc1
In short: as §1

entinostat = compound: Nc1ccccc1NC(=O)c1ccc(CNC(=O)OCc2cccnc2)cc1 [entinostat]
In short: as §1

vorinostat = compound: O=C(CCCCCCC(=O)Nc1ccccc1)NO [vorinostat]
In short: as §1

citarinostat = compound: O=C(CCCCCCNC(=O)c1cnc(N(c2ccccc2)c2ccccc2Cl)nc1)NO [citarinostat]
In short: as §1

silmitasertib = compound: O=C(O)c1ccc2c(c1)nc(Nc1cccc(Cl)c1)c1ccncc12 [silmitasertib]
In short: as §1

[10] = compound: O=C1NC(=O)C(c2cnc3ccccn23)=C1c1cn2c3c(cc(F)cc13)CN(C(=O)N1CCCCC1)CC2
In short: as §1

[11] = compound: c1cc(OCCN2CCCCC2)cc(-c2n[nH]c3ccc(-c4nnc[nH]4)cc23)c1
In short: as §1

| Target | log2 fold change (bafetinib) | log2 fold change [1] | log2 fold change (nilotinib) | log2 fold change [2] | log2 fold change (dasatinib) | log2 fold change [3] | log2 fold change [4] | log2 fold change [5] | log2 fold change (tipifarnib) | log2 fold change (mubritinib) | log2 fold change [6] | log2 fold change [7] | log2 fold change [8] | log2 fold change [9] | log2 fold change (entinostat) | log2 fold change (vorinostat) | log2 fold change (citarinostat) | log2 fold change (silmitasertib) | log2 fold change [10] | log2 fold change [11] |
| --- | --- | --- | --- | --- | --- | --- | --- | --- | --- | --- | --- | --- | --- | --- | --- | --- | --- | --- | --- | --- |
| NUDT3 (UniProt O95989) | inactive: -0.056 | inactive: 0.015 | inactive: -0.035 | inactive: 0.001 | inactive: 0.07 | inactive: -0.028 | inactive: -0.03 | inactive: 0.049 | inactive: 0.039 | inactive: 0.028 | inactive: -0.026 | inactive: -0.034 | inactive: -0.017 | inactive: -0.006 | inactive: -0.029 | inactive: 0.07 | inactive: -0.036 | inactive: -0.034 | inactive: -0.049 | inactive: 0.018 |
| OSBP (UniProt P22059) | inactive: -0.017 | inactive: 0.005 | inactive: 0.123 | active: -0.257 | inactive: -0.08 | inactive: -0.067 | inactive: -0.024 | inactive: -0.024 | inactive: -0.085 | inactive: 0.012 | inactive: -0.007 | inactive: 0.019 | inactive: -0.17 | inactive: -0.036 | inactive: 0.024 | inactive: 0.013 | inactive: 0.03 | inactive: 0.014 | inactive: -0.131 | inactive: -0.066 |
| OGT (UniProt O15294) | inactive: 0.03 | inactive: 0.041 | inactive: 0.044 | inactive: -0.055 | inactive: -0.089 | inactive: 0.03 | inactive: 0.005 | inactive: 0.036 | inactive: -0.095 | inactive: 0.191 | inactive: -0.024 | inactive: -0.042 | inactive: -0.094 | inactive: -0.012 | inactive: 0.008 | inactive: 0.042 | inactive: 0.064 | inactive: 0.038 | inactive: -0.03 | inactive: -0.014 |
| NTMT1 (UniProt Q9BV86) | inactive: 0.009 | inactive: 0.068 | inactive: 0.056 | inactive: 0 | inactive: -0.036 | inactive: 0.023 | inactive: 0.073 | inactive: 0.076 | inactive: 0.043 | inactive: 0.138 | inactive: -0.035 | inactive: 0.027 | inactive: 0.077 | inactive: -0.002 | inactive: 0.024 | inactive: -0.089 | inactive: -0.069 | inactive: -0.028 | inactive: -0.029 |  |
| ORC3 isoform 2 (UniProt Q9UBD5) | inactive: -0.032 | inactive: 0.099 | inactive: -0.262 | inactive: -0.254 | inactive: -0.298 | inactive: -0.118 | inactive: 0.067 | inactive: 0.109 | inactive: 0.086 | inactive: 0.029 | inactive: 0.018 | inactive: -0.09 | inactive: -0.093 | inactive: -0.142 | inactive: -0.004 | inactive: 0.236 | inactive: 0.023 | inactive: 0.058 | inactive: 0.008 | inactive: -0.188 |
| OGA (UniProt O60502) | inactive: -0.013 | inactive: -0.006 | inactive: -0.001 | inactive: 0.014 | inactive: -0.052 | inactive: -0.024 | inactive: 0.029 | inactive: 0.01 | inactive: 0.002 | inactive: 0.057 | inactive: -0.042 | inactive: -0.037 | inactive: -0.073 | inactive: -0.049 | inactive: -0.036 | inactive: 0.008 | inactive: 0.005 | inactive: -0.001 | inactive: -0.064 | inactive: 0.052 |
| NUSAP1 (UniProt Q9BXS6) | inactive: 0.129 | inactive: 0.002 | inactive: -0.127 | inactive: 0.108 | inactive: 0.15 | inactive: -0.032 | inactive: -0.214 | inactive: -0.093 | inactive: 0.162 | inactive: 0.002 | inactive: 0.081 | inactive: -0.047 | inactive: -0.067 | inactive: -0.111 | inactive: -0.027 | inactive: 0.005 | inactive: -0.022 | inactive: 0.175 | inactive: 0.168 | inactive: -0.223 |
| NUP188 (UniProt Q5SRE5) | inactive: 0.043 | inactive: 0.019 | inactive: -0.06 | inactive: -0.063 | inactive: -0.125 | inactive: 0.005 | inactive: 0 | inactive: -0.036 | inactive: -0.075 | inactive: 0.037 | inactive: -0.051 | inactive: -0.056 | inactive: -0.1 | inactive: -0.082 | inactive: 0.072 | inactive: 0.12 | inactive: 0.078 | inactive: 0.015 | inactive: 0.001 | inactive: -0.027 |
| NUP85 (UniProt Q9BW27) | inactive: -0.088 | inactive: 0.02 | inactive: -0.027 | inactive: -0.115 | inactive: -0.068 | inactive: -0.013 | inactive: -0.009 | inactive: -0.002 | inactive: -0.031 | inactive: 0.026 | inactive: 0.01 | inactive: -0.014 | inactive: -0.092 | inactive: -0.035 | inactive: -0.011 | inactive: 0.021 | inactive: 0.031 | inactive: 0.047 | inactive: -0.041 | inactive: -0.041 |
| NUP62 (UniProt P37198) | inactive: -0.004 | inactive: -0.018 | inactive: -0.055 | inactive: -0.027 | inactive: -0.026 | inactive: -0.006 | inactive: -0.047 | inactive: -0.073 | inactive: -0.032 | inactive: 0.022 | inactive: -0.017 | inactive: -0.018 | inactive: -0.041 | inactive: -0.043 | inactive: 0.051 | inactive: 0.024 | inactive: 0.016 | inactive: 0.048 | inactive: -0.045 | inactive: -0.084 |
| OPLAH (UniProt O14841) | inactive: -0.07 | inactive: 0.015 | inactive: 0 | inactive: 0.016 | inactive: -0.042 | inactive: -0.024 | inactive: 0.053 | inactive: 0.013 | inactive: 0.003 | inactive: 0.013 | inactive: 0.012 | inactive: -0.017 | inactive: -0.057 | inactive: -0.021 | inactive: -0.017 | inactive: 0.009 | inactive: -0.015 | inactive: -0.012 | inactive: -0.052 | inactive: -0.021 |
| NT5DC3 (UniProt Q86UY8) | inactive: -0.041 | inactive: -0.01 | inactive: 0.003 | inactive: 0.027 | inactive: 0.054 | inactive: 0.023 | inactive: 0.064 | inactive: -0.01 | inactive: 0.052 | inactive: 0.027 | inactive: -0.028 | inactive: -0.005 | inactive: -0.047 | inactive: -0.019 | inactive: 0.032 | inactive: 0.001 | inactive: 0.057 | inactive: 0.035 | inactive: -0.036 | inactive: -0.018 |
| OSBPL8 (UniProt Q9BZF1) | inactive: 0.182 | inactive: 0.049 | inactive: 0.295 | inactive: -0.086 | inactive: 0.066 | inactive: -0.047 | inactive: -0.225 | inactive: -0.093 | inactive: -0.117 | inactive: 0.108 | inactive: -0.06 | inactive: -0.03 | inactive: 0.063 | inactive: 0.042 | inactive: 0.012 | inactive: 0.049 | inactive: 0.005 | inactive: 0 | inactive: 0.079 | inactive: -0.129 |
| OXSR1 (UniProt O95747) | inactive: -0.014 | inactive: -0.012 | inactive: -0.083 | inactive: -0.029 | inactive: -0.179 | inactive: 0.031 | inactive: 0.038 | inactive: 0.005 | inactive: -0.117 | inactive: -0.05 | inactive: -0.014 | inactive: -0.048 | inactive: -0.151 | inactive: -0.064 | inactive: 0.031 | inactive: 0.042 | inactive: 0.045 | inactive: -0.071 | inactive: -0.007 | inactive: 0.018 |
| NUTF2 (UniProt P61970) | inactive: -0.031 | inactive: 0.035 | inactive: 0.084 | inactive: -0.008 | inactive: -0.051 | inactive: -0.016 | inactive: 0.084 | inactive: 0.129 | inactive: -0.066 | inactive: 0.044 | inactive: 0.041 | inactive: 0.07 | inactive: 0.016 | inactive: 0.081 | inactive: -0.033 | inactive: -0.009 | inactive: 0.053 | inactive: -0.064 | inactive: 0.016 | inactive: 0.006 |
| NUDT16L1 (UniProt Q9BRJ7) | inactive: -0.015 | inactive: -0.001 | inactive: 0.008 | inactive: 0.016 | inactive: 0.024 | inactive: 0.029 | inactive: 0.015 | inactive: 0.022 | inactive: -0.032 | inactive: 0.01 | inactive: 0.004 | inactive: 0.001 | inactive: -0.063 | inactive: -0.007 | inactive: -0.023 | inactive: -0.01 | inactive: -0.015 | inactive: 0.009 | inactive: 0.003 | inactive: -0.029 |

Reprinted from the listing for reference:

| Target | log2 fold change (bafetinib) | log2 fold change [1] | log2 fold change (nilotinib) | log2 fold change [2] | log2 fold change (dasatinib) | log2 fold change [3] | log2 fold change [4] | log2 fold change [5] | log2 fold change (tipifarnib) | log2 fold change (mubritinib) | log2 fold change [6] | log2 fold change [7] | log2 fold change [8] | log2 fold change [9] | log2 fold change (entinostat) | log2 fold change (vorinostat) | log2 fold change (citarinostat) | log2 fold change (silmitasertib) | log2 fold change [10] | log2 fold change [11] |
| --- | --- | --- | --- | --- | --- | --- | --- | --- | --- | --- | --- | --- | --- | --- | --- | --- | --- | --- | --- | --- |
| NTMT1 (UniProt Q9BV86) | inactive: 0.009 | inactive: 0.068 | inactive: 0.056 | inactive: 0 | inactive: -0.036 | inactive: 0.023 | inactive: 0.073 | inactive: 0.076 | inactive: 0.043 | inactive: 0.138 | inactive: -0.035 | inactive: 0.027 | inactive: 0.077 | inactive: -0.002 | inactive: 0.024 | inactive: -0.089 | inactive: -0.069 | inactive: -0.028 | inactive: -0.029 |  |
| ORC3 isoform 2 (UniProt Q9UBD5) | inactive: -0.032 | inactive: 0.099 | inactive: -0.262 | inactive: -0.254 | inactive: -0.298 | inactive: -0.118 | inactive: 0.067 | inactive: 0.109 | inactive: 0.086 | inactive: 0.029 | inactive: 0.018 | inactive: -0.09 | inactive: -0.093 | inactive: -0.142 | inactive: -0.004 | inactive: 0.236 | inactive: 0.023 | inactive: 0.058 | inactive: 0.008 | inactive: -0.188 |
| OGA (UniProt O60502) | inactive: -0.013 | inactive: -0.006 | inactive: -0.001 | inactive: 0.014 | inactive: -0.052 | inactive: -0.024 | inactive: 0.029 | inactive: 0.01 | inactive: 0.002 | inactive: 0.057 | inactive: -0.042 | inactive: -0.037 | inactive: -0.073 | inactive: -0.049 | inactive: -0.036 | inactive: 0.008 | inactive: 0.005 | inactive: -0.001 | inactive: -0.064 | inactive: 0.052 |
| NUSAP1 (UniProt Q9BXS6) | inactive: 0.129 | inactive: 0.002 | inactive: -0.127 | inactive: 0.108 | inactive: 0.15 | inactive: -0.032 | inactive: -0.214 | inactive: -0.093 | inactive: 0.162 | inactive: 0.002 | inactive: 0.081 | inactive: -0.047 | inactive: -0.067 | inactive: -0.111 | inactive: -0.027 | inactive: 0.005 | inactive: -0.022 | inactive: 0.175 | inactive: 0.168 | inactive: -0.223 |
